These are yes or no findings as the source states them, for the method shown. Binding seen in cells or lysates may run through a third protein. A result given as binding can be weak or reduced; the word gives no strength. Tags and fused reporters may be left off the sequences shown.
Molecular target: T1, cYFP-CIP111 (Arabidopsis thaliana) (UniProt Q9LET7)
T1 sequence: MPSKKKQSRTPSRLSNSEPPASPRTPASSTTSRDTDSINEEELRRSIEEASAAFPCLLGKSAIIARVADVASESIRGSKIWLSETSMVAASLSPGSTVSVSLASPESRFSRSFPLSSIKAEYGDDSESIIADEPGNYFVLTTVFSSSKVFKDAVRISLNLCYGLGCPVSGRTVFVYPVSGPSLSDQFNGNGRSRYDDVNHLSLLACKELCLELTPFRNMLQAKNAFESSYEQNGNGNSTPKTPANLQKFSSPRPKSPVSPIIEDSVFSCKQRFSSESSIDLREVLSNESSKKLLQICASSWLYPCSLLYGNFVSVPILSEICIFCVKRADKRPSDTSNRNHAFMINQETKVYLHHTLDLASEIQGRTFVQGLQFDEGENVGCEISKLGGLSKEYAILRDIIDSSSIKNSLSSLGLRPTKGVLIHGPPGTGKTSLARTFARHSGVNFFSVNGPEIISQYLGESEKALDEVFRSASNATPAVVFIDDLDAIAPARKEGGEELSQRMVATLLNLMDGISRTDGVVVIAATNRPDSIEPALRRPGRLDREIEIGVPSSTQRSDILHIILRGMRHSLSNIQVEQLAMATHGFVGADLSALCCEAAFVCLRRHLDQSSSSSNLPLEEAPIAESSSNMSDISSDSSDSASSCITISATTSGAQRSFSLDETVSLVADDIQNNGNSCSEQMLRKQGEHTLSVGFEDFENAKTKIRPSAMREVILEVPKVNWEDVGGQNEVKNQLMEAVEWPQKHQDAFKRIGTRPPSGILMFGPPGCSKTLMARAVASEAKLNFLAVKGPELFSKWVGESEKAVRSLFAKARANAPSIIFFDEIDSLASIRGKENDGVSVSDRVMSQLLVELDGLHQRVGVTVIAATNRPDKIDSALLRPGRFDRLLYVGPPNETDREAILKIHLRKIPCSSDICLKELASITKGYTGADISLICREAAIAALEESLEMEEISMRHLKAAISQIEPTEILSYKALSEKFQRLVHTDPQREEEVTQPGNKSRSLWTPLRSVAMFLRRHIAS
Assay: split reporter; BiFC with nYFP210 and cYFP210 in Nicotiana benthamiana leaf epidermal cells

The chains behind the UniProt entries cited, without tags or fusion partners. Where a name states a change or a piece, a line headed by the entry shows the natural chain unless it says otherwise.
UniProt Q9ZPR1: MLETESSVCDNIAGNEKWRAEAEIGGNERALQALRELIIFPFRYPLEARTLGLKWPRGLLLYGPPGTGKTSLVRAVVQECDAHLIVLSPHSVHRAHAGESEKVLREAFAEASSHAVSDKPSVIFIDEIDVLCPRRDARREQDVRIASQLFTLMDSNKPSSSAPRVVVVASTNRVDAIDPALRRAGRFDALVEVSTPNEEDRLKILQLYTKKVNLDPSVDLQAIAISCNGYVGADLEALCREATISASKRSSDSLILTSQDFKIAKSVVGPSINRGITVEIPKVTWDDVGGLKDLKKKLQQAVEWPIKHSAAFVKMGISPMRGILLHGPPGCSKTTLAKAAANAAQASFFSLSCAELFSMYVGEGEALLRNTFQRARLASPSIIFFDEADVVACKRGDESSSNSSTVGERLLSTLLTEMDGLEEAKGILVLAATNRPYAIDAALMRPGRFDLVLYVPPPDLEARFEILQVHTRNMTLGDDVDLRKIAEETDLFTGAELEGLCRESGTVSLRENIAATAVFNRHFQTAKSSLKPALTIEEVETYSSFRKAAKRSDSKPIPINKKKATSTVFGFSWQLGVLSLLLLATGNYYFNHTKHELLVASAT

Substance: nYFP-CDC48D (from UniProt Q9ZPR1) (enzyme)
- binding: binds

Source: article PMC12332008, “Ribosome biogenesis in plants requires the nuclear envelope and mitochondria localized OPENER complex” (Nature Communications, 2025)
